The entries are a selection whose mix differs from that of the whole data set. This is a noisy data set.
compound: COC(=O)/C=C/c1ccccc1 [methyl cinnamate]; assay: log2 ratio of iodoacetamide-alkyne labeling of the cysteine site, DMSO over compound (competition); higher = stronger covalent engagement of the cysteine by the compound, active = 1 or more; settings: 500 µM; treatment time 1 h; system: HEK293T cell lysate
Summary of the method: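 For each cysteine, the log2 competition ratio is mean control-channel reporter intensity over mean compound-channel reporter intensity. HEK293T lysate (2 mg/mL) was exposed to vehicle or electrophile (500 µM, 1 h, ambient temperature), labelled with iodoacetamide alkyne (1 h), clicked to sCIP-TMT reagents, digested overnight with trypsin at 37 °C, streptavidin-enriched and analysed by Orbitrap Eclipse LC-MS/MS with FAIMS and FragPipe. Cysteines quantified in only one of three replicates, each with duplicate channels, were excluded.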

Chains of the proteins cited; added tags and fusions are not shown. Lines headed by an entry give the natural chain unless they say otherwise; changes in a name come on top.
UniProt P55735: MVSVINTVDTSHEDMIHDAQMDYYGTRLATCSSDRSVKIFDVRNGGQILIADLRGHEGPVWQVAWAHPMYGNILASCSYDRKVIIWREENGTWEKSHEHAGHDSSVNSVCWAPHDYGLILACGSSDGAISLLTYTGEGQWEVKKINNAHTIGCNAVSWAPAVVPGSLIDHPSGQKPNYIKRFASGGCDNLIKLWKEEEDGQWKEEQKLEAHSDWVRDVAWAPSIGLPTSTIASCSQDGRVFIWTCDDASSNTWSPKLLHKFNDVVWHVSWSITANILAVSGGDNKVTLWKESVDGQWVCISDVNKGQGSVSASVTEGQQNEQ
UniProt P53677: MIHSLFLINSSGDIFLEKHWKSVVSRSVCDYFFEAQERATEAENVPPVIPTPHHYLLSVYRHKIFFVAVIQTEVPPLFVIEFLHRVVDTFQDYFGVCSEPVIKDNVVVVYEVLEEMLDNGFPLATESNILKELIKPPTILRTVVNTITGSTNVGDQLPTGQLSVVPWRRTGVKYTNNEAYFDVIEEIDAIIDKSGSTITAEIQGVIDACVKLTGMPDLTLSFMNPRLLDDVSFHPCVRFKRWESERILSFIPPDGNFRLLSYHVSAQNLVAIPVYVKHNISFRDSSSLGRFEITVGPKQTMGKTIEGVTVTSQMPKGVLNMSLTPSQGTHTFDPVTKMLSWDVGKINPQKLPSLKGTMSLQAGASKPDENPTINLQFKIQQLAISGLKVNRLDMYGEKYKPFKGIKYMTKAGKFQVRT
UniProt P55263: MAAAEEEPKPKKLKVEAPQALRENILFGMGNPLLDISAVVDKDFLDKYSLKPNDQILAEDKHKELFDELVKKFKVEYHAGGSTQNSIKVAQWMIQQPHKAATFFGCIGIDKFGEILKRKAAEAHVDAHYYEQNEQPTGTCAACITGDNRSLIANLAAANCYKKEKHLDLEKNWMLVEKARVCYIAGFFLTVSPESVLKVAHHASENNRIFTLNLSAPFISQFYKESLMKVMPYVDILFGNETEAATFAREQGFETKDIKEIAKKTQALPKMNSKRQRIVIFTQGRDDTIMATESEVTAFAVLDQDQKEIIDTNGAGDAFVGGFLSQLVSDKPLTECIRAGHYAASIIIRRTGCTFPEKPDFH
UniProt P55196: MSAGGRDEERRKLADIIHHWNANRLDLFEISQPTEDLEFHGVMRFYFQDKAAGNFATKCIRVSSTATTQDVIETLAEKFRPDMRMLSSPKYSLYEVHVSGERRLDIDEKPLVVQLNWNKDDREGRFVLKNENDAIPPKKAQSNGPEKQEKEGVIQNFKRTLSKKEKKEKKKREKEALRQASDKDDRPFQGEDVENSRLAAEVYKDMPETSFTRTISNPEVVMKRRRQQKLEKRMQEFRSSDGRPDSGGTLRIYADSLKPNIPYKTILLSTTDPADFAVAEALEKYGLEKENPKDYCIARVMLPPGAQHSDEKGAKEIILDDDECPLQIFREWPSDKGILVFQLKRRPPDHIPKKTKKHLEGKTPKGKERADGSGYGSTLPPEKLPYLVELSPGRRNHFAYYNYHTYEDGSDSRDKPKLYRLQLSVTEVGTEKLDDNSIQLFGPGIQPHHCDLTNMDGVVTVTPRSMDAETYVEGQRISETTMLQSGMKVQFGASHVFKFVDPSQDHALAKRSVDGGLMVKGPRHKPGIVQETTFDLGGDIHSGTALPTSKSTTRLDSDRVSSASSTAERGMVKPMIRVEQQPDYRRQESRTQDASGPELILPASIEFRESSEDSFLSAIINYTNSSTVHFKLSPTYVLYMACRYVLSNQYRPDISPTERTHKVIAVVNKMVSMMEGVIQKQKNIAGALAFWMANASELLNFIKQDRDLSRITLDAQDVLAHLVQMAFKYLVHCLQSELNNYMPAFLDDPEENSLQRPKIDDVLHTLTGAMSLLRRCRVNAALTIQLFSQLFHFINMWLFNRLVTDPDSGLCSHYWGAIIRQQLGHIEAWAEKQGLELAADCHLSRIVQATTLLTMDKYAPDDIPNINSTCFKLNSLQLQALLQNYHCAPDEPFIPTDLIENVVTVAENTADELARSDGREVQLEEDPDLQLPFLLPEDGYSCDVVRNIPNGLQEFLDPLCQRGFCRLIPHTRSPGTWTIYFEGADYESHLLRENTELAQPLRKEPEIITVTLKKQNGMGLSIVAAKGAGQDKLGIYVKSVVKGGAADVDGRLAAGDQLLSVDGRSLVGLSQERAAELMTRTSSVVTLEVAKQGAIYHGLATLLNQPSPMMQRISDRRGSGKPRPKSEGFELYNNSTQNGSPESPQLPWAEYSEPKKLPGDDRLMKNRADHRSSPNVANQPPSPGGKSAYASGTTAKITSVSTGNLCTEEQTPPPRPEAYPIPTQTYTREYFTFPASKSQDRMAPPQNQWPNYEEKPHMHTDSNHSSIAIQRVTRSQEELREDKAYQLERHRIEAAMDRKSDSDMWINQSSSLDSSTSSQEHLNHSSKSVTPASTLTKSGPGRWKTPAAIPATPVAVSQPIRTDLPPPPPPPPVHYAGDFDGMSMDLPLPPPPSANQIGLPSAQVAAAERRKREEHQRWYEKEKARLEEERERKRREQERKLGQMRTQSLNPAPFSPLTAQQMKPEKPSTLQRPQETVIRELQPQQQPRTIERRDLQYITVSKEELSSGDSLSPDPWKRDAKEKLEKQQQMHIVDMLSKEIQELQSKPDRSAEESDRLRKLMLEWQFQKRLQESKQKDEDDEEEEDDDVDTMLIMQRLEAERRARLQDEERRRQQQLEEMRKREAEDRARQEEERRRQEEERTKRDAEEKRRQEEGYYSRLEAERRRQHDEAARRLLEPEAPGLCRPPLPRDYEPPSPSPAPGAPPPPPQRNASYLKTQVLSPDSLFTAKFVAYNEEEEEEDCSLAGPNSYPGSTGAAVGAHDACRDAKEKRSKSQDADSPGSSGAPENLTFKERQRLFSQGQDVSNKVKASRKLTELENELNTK
UniProt P52948: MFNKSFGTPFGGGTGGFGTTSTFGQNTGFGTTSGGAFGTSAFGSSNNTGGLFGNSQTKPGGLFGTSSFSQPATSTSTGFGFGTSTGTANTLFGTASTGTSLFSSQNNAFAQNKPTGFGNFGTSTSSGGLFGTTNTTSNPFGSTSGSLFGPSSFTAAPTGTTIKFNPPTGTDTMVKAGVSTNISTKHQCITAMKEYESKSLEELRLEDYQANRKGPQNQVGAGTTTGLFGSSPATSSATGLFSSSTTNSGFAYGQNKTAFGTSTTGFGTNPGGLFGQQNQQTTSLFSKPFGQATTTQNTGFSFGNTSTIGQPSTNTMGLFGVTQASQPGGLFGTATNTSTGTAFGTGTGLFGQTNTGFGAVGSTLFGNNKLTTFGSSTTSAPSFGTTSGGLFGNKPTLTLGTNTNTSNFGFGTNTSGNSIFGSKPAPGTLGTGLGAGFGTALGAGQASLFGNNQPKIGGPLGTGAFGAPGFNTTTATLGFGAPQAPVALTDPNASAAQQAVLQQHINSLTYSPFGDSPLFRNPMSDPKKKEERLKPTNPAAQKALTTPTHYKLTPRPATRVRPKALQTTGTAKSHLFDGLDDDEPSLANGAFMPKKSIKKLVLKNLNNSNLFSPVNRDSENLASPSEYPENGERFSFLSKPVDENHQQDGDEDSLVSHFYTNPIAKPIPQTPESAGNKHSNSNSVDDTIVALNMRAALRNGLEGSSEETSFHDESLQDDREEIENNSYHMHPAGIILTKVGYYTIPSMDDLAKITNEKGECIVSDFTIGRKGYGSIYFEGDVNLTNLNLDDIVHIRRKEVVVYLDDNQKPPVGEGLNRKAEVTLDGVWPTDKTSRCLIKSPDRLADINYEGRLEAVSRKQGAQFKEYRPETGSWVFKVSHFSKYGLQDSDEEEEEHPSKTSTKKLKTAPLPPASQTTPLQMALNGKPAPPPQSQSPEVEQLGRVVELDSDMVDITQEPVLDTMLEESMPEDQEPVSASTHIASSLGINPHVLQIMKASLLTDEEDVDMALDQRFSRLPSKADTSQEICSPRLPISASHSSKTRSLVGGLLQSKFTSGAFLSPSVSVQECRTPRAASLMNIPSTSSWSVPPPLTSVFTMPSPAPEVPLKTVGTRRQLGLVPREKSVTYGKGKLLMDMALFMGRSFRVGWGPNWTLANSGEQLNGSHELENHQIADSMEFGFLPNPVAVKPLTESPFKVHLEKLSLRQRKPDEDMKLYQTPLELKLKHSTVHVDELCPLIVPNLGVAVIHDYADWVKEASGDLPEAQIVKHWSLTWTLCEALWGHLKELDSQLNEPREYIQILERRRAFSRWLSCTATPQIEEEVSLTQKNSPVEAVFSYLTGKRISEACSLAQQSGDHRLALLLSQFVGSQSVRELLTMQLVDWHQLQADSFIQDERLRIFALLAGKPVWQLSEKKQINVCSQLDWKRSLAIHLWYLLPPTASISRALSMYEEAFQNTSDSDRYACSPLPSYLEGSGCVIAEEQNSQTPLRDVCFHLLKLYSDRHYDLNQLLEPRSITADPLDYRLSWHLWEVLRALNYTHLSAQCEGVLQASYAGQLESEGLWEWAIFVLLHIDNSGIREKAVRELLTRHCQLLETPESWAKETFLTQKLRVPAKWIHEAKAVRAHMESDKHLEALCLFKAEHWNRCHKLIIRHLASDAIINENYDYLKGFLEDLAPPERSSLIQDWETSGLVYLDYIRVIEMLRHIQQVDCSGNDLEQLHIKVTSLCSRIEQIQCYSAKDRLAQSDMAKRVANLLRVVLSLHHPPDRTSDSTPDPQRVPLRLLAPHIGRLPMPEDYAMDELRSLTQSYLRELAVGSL
UniProt P60842, whole entry, looked up: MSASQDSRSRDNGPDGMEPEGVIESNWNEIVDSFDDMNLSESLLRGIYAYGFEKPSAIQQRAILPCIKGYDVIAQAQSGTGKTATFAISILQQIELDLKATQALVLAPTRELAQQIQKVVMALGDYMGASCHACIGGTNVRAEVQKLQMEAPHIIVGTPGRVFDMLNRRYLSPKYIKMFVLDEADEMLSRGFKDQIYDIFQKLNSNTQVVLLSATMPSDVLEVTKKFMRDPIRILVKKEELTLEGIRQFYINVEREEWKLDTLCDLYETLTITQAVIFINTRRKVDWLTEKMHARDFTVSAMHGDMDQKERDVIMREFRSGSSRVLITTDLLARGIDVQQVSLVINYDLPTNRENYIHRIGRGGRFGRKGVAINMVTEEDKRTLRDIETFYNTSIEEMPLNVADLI
UniProt P60891: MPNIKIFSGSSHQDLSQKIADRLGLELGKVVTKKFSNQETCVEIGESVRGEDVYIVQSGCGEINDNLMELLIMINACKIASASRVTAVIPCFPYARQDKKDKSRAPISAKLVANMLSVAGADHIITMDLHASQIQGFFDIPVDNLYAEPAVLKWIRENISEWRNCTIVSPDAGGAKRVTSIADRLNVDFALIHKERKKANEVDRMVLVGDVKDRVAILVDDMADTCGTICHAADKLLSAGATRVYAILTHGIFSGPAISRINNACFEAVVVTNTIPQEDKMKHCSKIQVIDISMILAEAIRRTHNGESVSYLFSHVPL
UniProt P60983, whole entry: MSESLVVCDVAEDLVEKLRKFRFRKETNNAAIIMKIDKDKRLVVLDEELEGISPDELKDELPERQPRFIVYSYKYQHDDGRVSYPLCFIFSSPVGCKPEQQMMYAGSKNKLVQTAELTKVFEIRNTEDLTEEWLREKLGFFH
UniProt P55199: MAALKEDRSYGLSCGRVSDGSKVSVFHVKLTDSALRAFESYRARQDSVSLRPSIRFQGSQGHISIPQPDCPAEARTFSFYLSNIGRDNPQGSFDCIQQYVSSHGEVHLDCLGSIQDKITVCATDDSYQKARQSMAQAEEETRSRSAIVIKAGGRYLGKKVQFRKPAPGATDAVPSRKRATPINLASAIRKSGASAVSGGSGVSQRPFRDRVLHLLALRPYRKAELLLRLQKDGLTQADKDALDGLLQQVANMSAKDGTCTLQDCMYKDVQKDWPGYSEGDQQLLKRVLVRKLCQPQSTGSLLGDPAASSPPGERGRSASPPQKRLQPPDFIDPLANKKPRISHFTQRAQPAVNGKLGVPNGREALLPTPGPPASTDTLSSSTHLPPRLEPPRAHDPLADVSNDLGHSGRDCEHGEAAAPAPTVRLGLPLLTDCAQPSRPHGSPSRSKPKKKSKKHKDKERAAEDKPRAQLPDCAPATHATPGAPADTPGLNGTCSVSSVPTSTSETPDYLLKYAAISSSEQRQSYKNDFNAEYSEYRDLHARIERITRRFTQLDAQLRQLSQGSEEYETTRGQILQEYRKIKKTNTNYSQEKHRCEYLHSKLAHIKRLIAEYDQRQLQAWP
UniProt P53597: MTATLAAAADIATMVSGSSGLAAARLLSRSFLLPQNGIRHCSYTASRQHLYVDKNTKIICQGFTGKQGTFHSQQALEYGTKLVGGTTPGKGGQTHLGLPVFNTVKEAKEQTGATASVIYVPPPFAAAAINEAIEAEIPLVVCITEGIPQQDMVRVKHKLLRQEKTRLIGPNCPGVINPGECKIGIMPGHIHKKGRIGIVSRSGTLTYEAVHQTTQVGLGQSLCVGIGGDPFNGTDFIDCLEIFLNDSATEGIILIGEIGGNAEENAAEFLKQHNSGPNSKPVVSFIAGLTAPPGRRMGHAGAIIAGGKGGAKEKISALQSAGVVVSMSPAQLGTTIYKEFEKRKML

log2 ratio of iodoacetamide-alkyne labeling, inactive:
KPNA2 C223 (UniProt P52292) 0.129
SEC13 C245 (UniProt P55735) 0.116
BLM C704 (UniProt P54132) 0.139
AP3M2 C29 (UniProt P53677) 0.196
ADK C353 (UniProt P55263) 0.121
UniProt P55196_C960 -0.0203
RARS C115 (UniProt P54136) 0.0596
UniProt P55769_C73 -0.2
UniProt P60953_C157 0.273
NUP98 C1590 (UniProt P52948) 0.223
EIF6 C110 (UniProt P56537) 0.0389
UniProt P60709_C257 -0.258
MARS C12 (UniProt P56192) 0.08
UniProt P60842_C66 0.205
HSD17B4 C373 (UniProt P51659) -0.0025
UniProt P60891_C165 0.284
UniProt P60891_C226 -0.169
USP46 C10 (UniProt P62068) 0.236
GMFB C8 (UniProt P60983) -0.0547
RABGGTB C40 (UniProt P53611) 0.198
ELL C473 (UniProt P55199) 0.125
UniProt P55196_C324 0.265
SUCLG1 C60 (UniProt P53597) 0.191

2 records drawn at random from those above:
log2 ratio of iodoacetamide-alkyne labeling, inactive:
ELL C473 (UniProt P55199) 0.125
GMFB C8 (UniProt P60983) -0.0547

— the supplement of paper PMC11006884
